US7538185B2, “Glucagon-like peptide-1 analogs with long duration of action” (Theratechnologies Inc., priority 2004, dated 2009)
Some of these results come from one statement about several compounds together.

These substances were tested on CD-1 mice (assay: Post-prandial blood glucose levels in CD-1 mice (Example 2, FIG. 1)). Settings: CD-1 mice fasted overnight, fed 30 minutes, peptides 400 μg/kg sc, blood glucose followed 6 hours.
Type: in vivo
Method: Various peptides, including peptides of the present invention (400 μg/kg), were administered sc at 30 minutes and the blood glucose levels were determined for the next 6 hours. The data are presented as mean ±SEM values;
Overnight fasted CD-1 normal female mice (6 wk. Charles River, Montreal, Canada), were fed ad libidum for 30 minutes. […] Blood samples were drawn by tail vein excision and blood glucose levels (mmol/L) were determined for the next 6 hours using a One-Touch™ glucometer.
Exendin-4™ [reference compound] was tested, and the “duration of hypoglycemic action” value was “at least 4 hours”.
With “His-Ala-Glu-Gly-Thr-Phe-Thr-Ser-Asp-Val-Ser-Ser-Tyr-[(S)-Octylglycine]-Glu-Gly-Gln-Ala-Ala-Lys-Glu-Phe-Ile-Ala-Trp-Leu-Val-Lys-Gly-Arg-NH2 [TH0322]” the “duration of hypoglycemic action” value was “at least 4 hours”.
With “2-Hydroxybenzoyl-NH-His-Ala-Glu-Gly-Thr-Phe-Thr-Ser-Asp-Val-Ser-Ser-Tyr-Leu-Glu-Gly-Gln-Ala-Ala-Lys-Leu-Phe-Ile-Glu-Trp-Leu-Lys-Asn-Gly-NH2 [TH0368]” the “duration of hypoglycemic action” value was “at least 4 hours”.
